Literature values as cited in US9249466B2, “Methods and compositions for treating cancer” (Agency for Science, Technology and Research, priority 2010, dated 2016).
Read-outs that look alike come from different tables or passages of the source.

Conditions: cited from earlier work

In the case of `CO[C@H]1C[C@@H]2CC[C@@H](C)[C@@](O)(O2)C(=O)C(=O)N2CCCC[C@H]2C(=O)O[C@H]([C@H](C)C[C@@H]2CC[C@@H](O)[C@H](OC)C2)CC(=O)[C@H](C)/C=C(\C)[C@@H](O)[C@@H](OC)C(=O)[C@H](C)C[C@H](C)/C=C/C=C/C=C/1C` [rapamycin, (3S,6R,7E,9R,10R,12R,14S,15E,17E,19E,21S,23S,26R,27R,34aS)-9,10,12,13,14,21,22,23,24,25,26,27,32,33,34,34a-hexadecahydro-9,27-dihydroxy-3-[(1R)-2-[(1S,3R,4R)-4-hydroxy-3-methoxycyclohexyl]-1-methylethyl]-10,21-dimethoxy-6,8,12,14,20,26-hexamethyl-23,27-epoxy-3H-pyrido[2,1-c][1,4]-oxaazacyclohentriacontine-1,5,11,28,29(4H,6H,31H)-pentone], the solubility (alcohols, halogenated hydrocarbons and dimethyl sulfoxide) is given as “soluble in alcohols” and the solubility (water, aliphatic hydrocarbons and diethyl ether) is given as “sparingly soluble”.
